In publication PMC7360120:
Results are given in words; binding and its absence hold for the method and conditions named. A result given as binding can be weak or reduced; the word gives no strength. Tags and fused reporters may be left off the sequences shown.

Target: GST-ELKS1αB 697-992
Experiment: pull-down; GST-ELKS fragments on glutathione-Sepharose with soluble purified His-Rab6 point mutants (1.2 μM); 150 mM NaCl, 20 mM HEPES pH 7.4, 4 mM EGTA, 1 mM DTT, 1% Triton X-100, 0.1 mg/ml BSA, 5 mM Mg2+, 1 h at 4°C; T7 western blot; both purified

binding: binds
B1: His-Rab6A Q72L (protein, UniProt P35279 1-208)
chain: MSAGGDFGNPLRKFKLVFLGEQSVGKTSLITRFMYDSFDNTYQATIGIDFLSKTMYLEDRTVRLQLWDTAGLERFRSLIPSYIRDSTVAVVVYDITNVNSFQQTTKWIDDVRTERGSDVIIMLVGNKTDLADKRQVSIEEGERKAKELNVMFIETSAKAGYNVKQLFRRVAAALPGMESTQDRSREDMIDIKLEKPQEQPVNEGGCSC
